Results on 38 molecules are retold here after PubChem BioAssay.

The nature of one assay: PubChem AID 1586. To be noted: yeast two-hybrid polyglutamine protein interaction, reporter readout; measured here: averaged growth delta OD.
Assay [1] can be described thus: enhancers of SMN2 over SMN1 splicing, cell-based, SMN2/SMN1 luciferase reporters (AID 1598). To be noted: SMN2 vs SMN1 luciferase splicing reporter cells, at 10 µM; SMN1 luciferase ratio: measured here: SMN1 luciferase reporter average; SMN2 luciferase ratio: measured here: SMN2 luciferase reporter average, stronger effect = higher value.
Assay [2] can be described thus: protection against mutant huntingtin cytotoxicity, PC12 cells, LDH release (AID 1610). To be noted: PC12 mutant huntingtin toxicity, final LDH at 4 uM, stronger effect = lower value. (In general: LDH leaks from cells whose membrane has failed.)

Molecules are shown by their SMILES. Several values for one entry are separate records, joined by “and”; a condition that tells them apart may be missing. Identical values can stand only once. The list shows a part of the results. Shown are side measurements of this screen, not its main read-out; they come without a call. For some assays here: Most of these compounds were active or inconclusive in the main read-out, so they are no random draw. Peptide text beside a SMILES is read from it.

`CN1CCN(C2=Nc3cc(Cl)ccc3Nc3ccccc32)CC1`: in the assay “PubChem AID 1586”, the signal change (36 h minus 0 h) came out at 0.149. Also, in assay [1], the SMN1 luciferase ratio is 0.81 and the SMN2 luciferase ratio amounted to 0.79. The molecule further yielded a normalised LDH release in assay [2] of 0.988.
Taken in the same sequence, the figures for `CCN(CC)C(=O)N1CCN(C)CC1` were 0.131, 0.87, 0.89 and 0.832.
Taken in the same sequence, the figures for `CCCCOc1cc(C(=O)NCCN(CC)CC)c2ccccc2n1` were 0.163, 0.86, 0.77 and 0.854.
Taken in the same sequence, the figures for `CO/N=C(/C(=O)NC1C(=O)N2C(C(=O)O)=C(COC(N)=O)CSC12)c1ccco1` (configuration not stated) were 0.107, 0.91, 0.83 and 1.
`CCCNC(=O)NS(=O)(=O)c1ccc(Cl)cc1` came in with a signal change (36 h minus 0 h) in the assay “PubChem AID 1586” of 0.15. Also, in assay [1], the SMN1 luciferase ratio is 0.83 and the SMN2 luciferase ratio is 0.87. The molecule further displayed a normalised LDH release in assay [2] of 0.844.
For `CC(C[N+](C)(C)C)OC(N)=O` (configuration not stated), in that order: 0.194, 0.95, 1.02 and 0.929.
For `CC1(C)O[C@@H]2CC3C4CCC5=CC(=O)C=C[C@]5(C)[C@@]4(F)[C@@H](O)C[C@]3(C)[C@]2(C(=O)CO)O1` (some centres not stated), in that order: 0.203, 1.01, 1.01 and 0.785.
For `Cc1cn([C@H]2C[C@H](N=[N+]=[N-])[C@@H](CO)O2)c(=O)[nH]c1=O`, in that order: 0.206, 0.83, 0.78 and 1.62.
Turning to `CC(N)C(O)c1cccc(O)c1` (configuration not stated), the signal change (36 h minus 0 h) in the assay “PubChem AID 1586” amounted to 0.144. For the same molecule, in assay [1], the SMN1 luciferase ratio is 0.85 and the SMN2 luciferase ratio is 0.97. In assay [2], this molecule displayed a normalised LDH release of 0.768.
For `NCCCCC(N)C(=O)NC(Cc1ccc(O)cc1)C(=O)NC(CCCCN)C(=O)O` (stereo not drawn) (H-Lys-Tyr-Lys-OH; configuration not given here), in that order: 0.189, 0.89, 1.02 and 1.17.
Taken in the same sequence, the figures for `CCCCC(=O)O[C@H]1CCC2C3CCc4cc(O)ccc4C3CC[C@@]21C` (some centres not stated) were 0.0843, 0.88, 0.98 and 1.07.
For `CC(C)=CCC/C(C)=C/CO`, in that order: 0.0614, 0.75, 0.87 and 1.04.
Molecule `CC(=O)OCC[N+](C)(C)C` came in with a signal change (36 h minus 0 h) in the assay “PubChem AID 1586” of 0.321. In assay [1], the SMN1 luciferase ratio was found to be 0.94 and the SMN2 luciferase ratio stood at 0.92. In assay [2], this molecule came in with a normalised LDH release of 0.846.
For `CN(C)CCCN1c2ccccc2CCc2ccccc21`, in that order: 0.184, 0.9, 0.83 and 0.742.
Taken in the same sequence, the figures for `O=C(O)c1ccccc1Nc1cccc(C(F)(F)F)c1` were 0.0419, 0.96, 1.01 and 0.812.
Taken in the same sequence, the figures for `N[C@@H](Cc1c[nH]c2ccccc12)C(=O)O` were 0.153, 0.85, 0.97 and 0.782.
`Nc1ccc(S(=O)(=O)Nc2cnc3ccccc3n2)cc1`: the signal change (36 h minus 0 h) in the assay “PubChem AID 1586” turned out to be 0.053. Besides, in assay [1], the SMN1 luciferase ratio came out at 0.86 and the SMN2 luciferase ratio was 0.84. Besides, the normalised LDH release in assay [2] was 0.872.
For `COC(=O)[C@H](c1ccccc1Cl)N1CCc2sccc2C1`, in that order: 0.276, 0.89, 0.89 and 0.564.
For `CC(=O)Nc1nnc(S(N)(=O)=O)s1`, in that order: 0.118, 1.02, 0.89 and 0.984.
For `COc1cc(NS(=O)(=O)c2ccc(N)cc2)ncn1`, in that order: 0.27, 0.92, 0.91 and 0.914.
For the molecule `c1ccc2[nH]c(-c3cscn3)nc2c1`, in “PubChem AID 1586”, the signal change (36 h minus 0 h) is 0.0491. For the same molecule, in assay [1], the SMN1 luciferase ratio is 1.16 and the SMN2 luciferase ratio came to 1. For the same molecule, the normalised LDH release in assay [2] worked out at 0.666.
For `Cn1cc[nH]c1=S`, in that order: 0.0447, 0.9, 0.91 and 0.887.
Taken in the same sequence, the figures for `C#C[C@]1(O)CCC2C3CCc4cc(O)ccc4C3CC[C@@]21C` (some centres not stated) were 0.0361, 0.97, 0.87 and 0.798.
Taken in the same sequence, the figures for `CC(C)(C)NCC(O)COc1cccc2c1C[C@H](O)[C@H](O)C2` (some centres not stated) were 0.156, 0.93, 0.94 and 1.03.
`CN1CCN(CCCN2c3ccccc3Sc3ccc(C(F)(F)F)cc32)CC1`: the signal change (36 h minus 0 h) in “PubChem AID 1586” amounted to 0.122. For the same molecule, in assay [1], the SMN1 luciferase ratio came to 0.89 and the SMN2 luciferase ratio is 0.93. This molecule gave a normalised LDH release in assay [2] of 1.11.
For `CC1CCc2cc(F)cc3c(=O)c(C(=O)O)cn1c23` (configuration not stated), in that order: 0.201, 0.84, 0.95 and 0.851.
For the molecule `CN(C)CCOC(c1ccccc1)c1ccccc1` (tested in a mixture with another compound), in the assay “PubChem AID 1586”, the signal change (36 h minus 0 h) came out at 0.174. Also, in assay [1], the SMN1 luciferase ratio amounted to 0.87 and the SMN2 luciferase ratio is 0.9. In addition, the normalised LDH release in assay [2] came out at 0.865.
Taken in the same sequence, the figures for `CC(C)[N+](C)(CCOC(=O)C1c2ccccc2Oc2ccccc21)C(C)C` were 0.547, 0.98, 0.85 and 0.959.
Taken in the same sequence, the figures for `C#C[C@]1(O)CCC2C3CCC4=Cc5oncc5C[C@]4(C)C3CC[C@@]21C` (some centres not stated) were 0.0531, 0.93, 0.87 and 1.05.
For `CO[C@]12C[C@@H](COC(=O)c3cncc(Br)c3)CN(C)[C@@H]1Cc1cn(C)c3cccc2c13`, in that order: 0.17, 0.83, 0.82 and 0.867.
As for `CN(C)CCOC(=O)C(c1ccccc1)C1(O)CCCC1` (configuration not stated), in “PubChem AID 1586”, the signal change (36 h minus 0 h) is 0.209. For the same molecule, in assay [1], the SMN1 luciferase ratio turned out to be 0.86 and the SMN2 luciferase ratio stood at 0.93. Also, in assay [2], the normalised LDH release stood at 0.732.
On to `NCCCCCCNS(=O)(=O)c1cccc2c(Cl)cccc12`, for which the signal change (36 h minus 0 h) in “PubChem AID 1586” is 0.407 and 0.189 and 0.0848. Also, in assay [1], the SMN1 luciferase ratio was 0.91 and 0.82 and 0.83; the SMN2 luciferase ratio was 0.95 and 0.87 and 0.94. Further, the normalised LDH release in assay [2] is 1.11 and 1.1 and 0.937.
In “PubChem AID 1586”, `CC(=O)CCCCn1c(=O)c2c(ncn2C)n(C)c1=O` had a signal change (36 h minus 0 h) of 0.0945. Also, in assay [1], the SMN1 luciferase ratio came to 0.86 and the SMN2 luciferase ratio stood at 0.94. The molecule also gave a normalised LDH release in assay [2] of 1.09.
For `NS(=O)(=O)c1cc2c(cc1Cl)NCNS2(=O)=O`, in that order: 0.129, 0.85, 0.93 and 1.06.
Taken in the same sequence, the figures for `C[C@]12C=CC(=O)C=C1CCC1C2[C@@H](O)C[C@@]2(C)C1CC[C@]2(O)C(=O)CO` (some centres not stated) were 0.446, 0.95, 0.94 and 0.62.
In turn, `CC(C)[C@@H](C)/C=C/[C@@H](C)C1CC[C@H]2/C(=C/C=C3\C[C@@H](O)CC[C@@H]3C)CCC[C@]12C` (some centres not stated) yielded a signal change (36 h minus 0 h) in the assay “PubChem AID 1586” of 0.126. Besides, in assay [1], the SMN1 luciferase ratio was 0.92 and the SMN2 luciferase ratio was 0.91. In addition, in assay [2], the normalised LDH release was 0.659.
For the molecule `CC(C)NCC(O)COc1ccc(CC(N)=O)cc1` (configuration not stated), the signal change (36 h minus 0 h) in the assay “PubChem AID 1586” came out at 0.181. For the same molecule, in assay [1], the SMN1 luciferase ratio was determined as 0.88 and the SMN2 luciferase ratio amounted to 1. Besides, the normalised LDH release in assay [2] is 0.902.
As for `Cc1cc(-c2ccccc2)nnc1NCCN1CCOCC1`, in the assay “PubChem AID 1586”, the signal change (36 h minus 0 h) amounted to 0.0742. In addition, in assay [1], the SMN1 luciferase ratio stood at 0.83 and the SMN2 luciferase ratio stood at 0.92. This molecule also came in with a normalised LDH release in assay [2] of 0.708.
